Reference: PubChem BioAssay AID1259308 (NCATS, 2017)
Assay: 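Genes whose loss raises luciferase production in HEK293 cells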 (primary screen). Cell system: human HEK293 embryonic kidney cells stably expressing firefly luciferase (HEK-CMV-Luc2-Hygro). Reagent: single siRNA against human genes, 0.8 pmol siRNA per well. Timing: 72 h. Measurement: 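Reporter luminescence and viable-cell signal on separate replicate plates, given as percent of non-targeting control and median/MAD z-scores, plus per-cell luciferase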. Reading the numbers: total luciferase, z-score and total luciferase, % of control: higher = more reporter protein produced; luciferase per cell, z-score: higher = more reporter output per viable cell. Call rule: 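An siRNA counts as active if its total luciferase robust z-score exceeds 3; genes with two or more such siRNAs out of three were retested with fresh siRNAs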. Meaning of the calls: active = raised luciferase; inactive = no rise.
Here is an unselected part of about 59,000 reagents. In the full data, about 1,510 (2.6%) got an active call. 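Calls use total luciferase alone and ignore viability, so some active siRNAs may act by altering cell number.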 Unmarked entries are inactive. The numbers tell different reagents against one gene apart. Further read-outs or replicates are left out here.

The first 4 records, ahead of the listing:
Target gene | siRNA no. | total luciferase, z-score | total luciferase, % of control | luciferase per cell, z-score
PLEC | 1 | -0.00621 | 81.8 | -0.145
PLEC | 2 | 1.47 | 111 | 1.26
PLEC | 3 | -0.739 | 67.2 | -0.374
BBOF1 | 1 | 0.078 | 83.4 | 0.106

Results, from the first entry:
Target gene | siRNA no. | total luciferase, z-score | total luciferase, % of control | luciferase per cell, z-score
PLEC | 1 | -0.00621 | 81.8 | -0.145
PLEC | 2 | 1.47 | 111 | 1.26
PLEC | 3 | -0.739 | 67.2 | -0.374
BBOF1 | 1 | 0.078 | 83.4 | 0.106
BBOF1 | 2 | 0.655 | 94.9 | 0.778
BBOF1 | 3 | 2.53 | 132 | 2.02
SERPINB6 | 1 | 1.12 | 104 | 0.614
SERPINB6 | 2 | -0.166 | 78.6 | -0.654
SERPINB6 | 3 | -0.383 | 74.3 | -0.697
MAGEA1 | 1 | -1.17 | 58.7 | -1.78
MAGEA1 | 2 | -0.76 | 66.8 | -0.381
MAGEA1 | 3 | -0.401 | 73.9 | -1.38
MLEC | 1 | -2.21 | 37.9 | -3.2
MLEC | 2 | 0.303 | 87.9 | -0.183
MLEC | 3 | -0.194 | 78 | -0.965
MCAM | 1 | 0.616 | 94.1 | 1.27
MCAM | 2 | 0.0622 | 83.1 | 0.209
MCAM | 3 | -1.29 | 56.2 | -0.153
FRG1JP | 1 | 1.06 | 103 | 1.11
FRG1JP | 2 | 0.0914 | 83.7 | -0.336
FRG1JP | 3 | -2.68 | 28.6 | -3.92
SYT2 | 1 | 1.24 | 107 | 0.618
SYT2 | 2 | 0.159 | 85 | 0.00409
SYT2 | 3 | 1.12 | 104 | 2.9
CCNC | 1 | -2.66 | 29 | -3.17
CCNC | 2 | -1.3 | 56.1 | -1.11
CCNC | 3 | -1.13 | 59.4 | -0.317
OR8B4 | 1 | -0.943 | 63.1 | -0.161
OR8B4 | 2 | 0.144 | 84.7 | 1.05
OR8B4 | 3 | -0.137 | 79.2 | 0.251
GCA | 1 | -0.311 | 75.7 | -0.873
GCA | 2 | -1.13 | 59.5 | -0.573
GCA | 3 | 0.318 | 88.2 | 0.315
KIF19 | 1 | 0.394 | 89.7 | 0.13
KIF19 | 2 | -0.28 | 76.3 | 0.378
KIF19 | 3 | -1.09 | 60.2 | -0.914
HMX3 | 1 | 0.755 | 96.9 | 0.262
HMX3 | 2 | 0.472 | 91.3 | -0.352
HMX3 | 3 | -0.399 | 73.9 | -0.293
PAGE4 | 1 | 1.93 | 120 | 1.78
PAGE4 | 2 | 1.13 | 104 | 1.43
PAGE4 | 3 | -0.72 | 67.6 | -0.832
LOC729268 (retired record) | 1 | -0.657 | 68.8 | -0.584
LOC729268 (retired record) | 2 | -0.443 | 73.1 | -0.293
LOC729268 (retired record) | 3 | -0.838 | 65.2 | 0.0611
WIPF1 | 1 | -0.929 | 63.4 | -1.31
WIPF1 | 2 | -2.26 | 36.9 | -1.65
WIPF1 | 3 | -0.883 | 64.3 | -0.535
RNASE8 | 1 | 0.0791 | 83.5 | -0.412
RNASE8 | 2 | -0.917 | 63.7 | -1.21
RNASE8 | 3 | 0.471 | 91.3 | 0.554
FCHO2 | 1 | 1.65 | 115 | 1.23
FCHO2 | 2 | 0.946 | 101 | 0.464
FCHO2 | 3 | 0.527 | 92.4 | 0.336
NDST3 | 1 | -0.224 | 77.4 | -0.235
NDST3 | 2 | -1.33 | 55.5 | -1.63
NDST3 | 3 | 0.145 | 84.8 | -0.22
ALPI | 1 | -0.206 | 77.8 | -0.343
ALPI | 2 | 1.08 | 103 | 0.578
ALPI | 3 | -0.987 | 62.3 | -0.464
RAB40C | 1 | -0.434 | 73.2 | -0.733
RAB40C | 2 | -0.555 | 70.8 | -0.236
RAB40C | 3 | -0.0873 | 80.2 | -0.689
ISCA1 | 1 | 2.51 | 132 | 2.19
ISCA1 | 2 | -1.27 | 56.6 | -0.635
ISCA1 | 3 | -1.74 | 47.2 | -1.11
LINC01061 | 1 | 0.00764 | 82 | 0.874
LINC01061 | 2 | -1.07 | 60.5 | -1.1
LINC01061 | 3 | 1.02 | 102 | 0.606
LINC01376 | 1 | -0.0664 | 80.6 | 0.146
LINC01376 | 2 | 0.964 | 101 | 0.547
LINC01376 | 3 | -1.4 | 54.1 | -1.26
GJB3 | 1 | 0.74 | 96.6 | 0.406
GJB3 | 2 | 1.32 | 108 | 0.652
GJB3 | 3 | -0.754 | 66.9 | 0.519
